Data: PMC5387711 (Cell Discovery, 2017)
Results are given in words; binding and its absence hold for the method and conditions named. Binding seen in cells or lysates may run through a third protein. Some binding calls cover weakened binding; strength is not graded here. For some assays here: Tags and fused reporters may be left off the sequences shown. Each block holds one molecule with its values, some of them ahead of it.

By UniProt entry, the sequences of proteins in these tests, tags left out.
UniProt P35222: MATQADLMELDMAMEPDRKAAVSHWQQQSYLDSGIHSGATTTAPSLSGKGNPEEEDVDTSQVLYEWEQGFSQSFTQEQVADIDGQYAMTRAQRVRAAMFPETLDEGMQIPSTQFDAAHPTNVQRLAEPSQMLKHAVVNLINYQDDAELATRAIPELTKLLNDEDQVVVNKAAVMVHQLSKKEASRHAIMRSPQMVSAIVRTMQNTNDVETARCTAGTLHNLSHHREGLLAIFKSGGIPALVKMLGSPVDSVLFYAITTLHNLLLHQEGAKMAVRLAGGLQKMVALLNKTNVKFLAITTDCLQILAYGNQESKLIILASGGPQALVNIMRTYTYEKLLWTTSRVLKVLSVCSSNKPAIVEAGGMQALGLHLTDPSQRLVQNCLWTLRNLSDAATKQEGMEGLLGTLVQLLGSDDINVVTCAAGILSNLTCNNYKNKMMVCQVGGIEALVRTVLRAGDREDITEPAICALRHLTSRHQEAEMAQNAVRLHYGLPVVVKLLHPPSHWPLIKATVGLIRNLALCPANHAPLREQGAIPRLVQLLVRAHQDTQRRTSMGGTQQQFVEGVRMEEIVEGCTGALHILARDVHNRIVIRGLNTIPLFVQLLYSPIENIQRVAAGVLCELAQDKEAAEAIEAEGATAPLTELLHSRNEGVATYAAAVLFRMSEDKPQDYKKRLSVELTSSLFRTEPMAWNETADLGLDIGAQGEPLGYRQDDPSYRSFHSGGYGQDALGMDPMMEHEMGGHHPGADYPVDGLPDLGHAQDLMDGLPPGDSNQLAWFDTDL

What was measured:
[1] = biological target: T1, endogenous CARF (human (endogenous in HEK293)) (UniProt Q9NXV6); experiment: co-IP; endogenous Co-IP, cells with or without Wnt stimulation (Supplementary Figure S6D); cells and IP antibody not shown
T1 sequence: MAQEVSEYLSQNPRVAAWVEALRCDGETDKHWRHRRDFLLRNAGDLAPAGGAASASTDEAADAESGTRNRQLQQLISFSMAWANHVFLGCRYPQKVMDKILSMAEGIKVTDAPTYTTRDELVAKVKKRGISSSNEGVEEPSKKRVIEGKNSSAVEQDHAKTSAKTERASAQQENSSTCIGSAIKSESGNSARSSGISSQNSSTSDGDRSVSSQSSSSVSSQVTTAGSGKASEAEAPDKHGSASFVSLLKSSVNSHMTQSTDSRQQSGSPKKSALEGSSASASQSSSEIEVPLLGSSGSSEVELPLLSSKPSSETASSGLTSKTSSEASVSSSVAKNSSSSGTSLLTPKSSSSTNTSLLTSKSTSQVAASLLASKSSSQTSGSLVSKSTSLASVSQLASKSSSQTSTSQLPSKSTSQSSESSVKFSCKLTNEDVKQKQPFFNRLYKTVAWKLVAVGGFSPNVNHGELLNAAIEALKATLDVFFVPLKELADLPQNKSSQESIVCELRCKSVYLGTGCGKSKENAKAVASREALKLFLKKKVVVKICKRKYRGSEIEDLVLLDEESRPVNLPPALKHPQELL

GST-hCARF (human) = biological target: T2, GST-hCARF (human) (UniProt Q9NXV6); experiment: pull-down; GST-hCARF purified on glutathione beads mixed with E. coli lysate of His6-mDvl1 plus DMSO for 2 h; beads washed 3 times; western blot; only the target purified
T2 sequence: T1 sequence

binding [1]: binds
Molecule: endogenous β-catenin (from UniProt P35222 1-781)

binding (GST-hCARF (human)): binds
B1: His6-tagged mDvl1 (protein, UniProt P51141 1-695)
chain: MAETKIIYHMDEEETPYLVKLPVAPERVTLADFKNVLSNRPVHAYKFFFKSMDQDFGVVKEEIFDDNAKLPCFNGRVVSWLVLAEGAHSDAGSQGTDSHTDLPPPLERTGGIGDSRPPSFHPNVASSRDGMDNETGTESMVSHRRERARRRNRDEAARTNGHPRGDRRRDLGLPPDSASTVLSSELESSSFIDSDEEDNTSRLSSSTEQSTSSRLVRKHKCRRRKQRLRQTDRASSFSSITDSTMSLNIITVTLNMERHHFLGISIVGQSNDRGDGGIYIGSIMKGGAVAADGRIEPGDMLLQVNDVNFENMSNDDAVRVLREIVSQTGPISLTVAKCWDPTPRSYFTIPRADPVRPIDPAAWLSHTAALTGALPRYGTSPCSSAITRTSSSSLTSSVPGAPQLEEAPLTVKSDMSAIVRVMQLPDSGLEIRDRMWLKITIANAVIGADVVDWLYTHVEGFKERREARKYASSMLKHGFLRHTVNKITFSEQCYYVFGDLCSNLASLNLNSGSSGASDQDTLAPLPHPSVPWPLGQGYPYQYPGPPPCFPPAYQDPGFSCGSGSAGSQQSEGSKSSGSTRSSHRTPGREERRATGAGGSGSESDHTVPSGSGSTGWWERPVSQLSRGSSPRSQASAVAPGLPPLHPLTKAYAVVGGPPGGPPVRELAAVPPELTGSRQSFQKAMGNPCEFFVDIM
